Data reported in patent publication US20230358737A1, “CONTINUOUSLY CHEMICALLY ENHANCED APTAMER SENSORS” (University of Cincinnati, priority 2020, published 2023).

Key:
[1] = transwell test of cortisol partitioning through oil-soaked track-etch membranes, ELISA; type: physicochemical; details: 10 μM cortisol in bottom well, 2 hours, room temperature
[2] = U-boat pH and salt diffusion test through oil-impregnated membrane; type: physicochemical; details: pH 3 in control chamber

Structure (SMILES)	cortisol concentration in upper well relative to tetradecane membrane [1]	pH change of monitored solution ([2]; after 10 hours)	rank by ELISA cortisol concentration in upper well [1]	pH change of monitored solution ([2]; within 8 hours)
CCCCCCCCCCO [1-Decanol]	more than 5 ×	fails to maintain the pH within two units	–	–
CCCCCCCCCCCCCC [Tetradecane]	–	–	second-ranking	within one unit
